Results are given in words; binding and its absence hold for the method and conditions named. In cells and extracts the contact can be indirect. Some entries that bind do so weakly or less than the wild type.

By UniProt entry, the sequences of proteins in these tests, tags left out.
UniProt P46938: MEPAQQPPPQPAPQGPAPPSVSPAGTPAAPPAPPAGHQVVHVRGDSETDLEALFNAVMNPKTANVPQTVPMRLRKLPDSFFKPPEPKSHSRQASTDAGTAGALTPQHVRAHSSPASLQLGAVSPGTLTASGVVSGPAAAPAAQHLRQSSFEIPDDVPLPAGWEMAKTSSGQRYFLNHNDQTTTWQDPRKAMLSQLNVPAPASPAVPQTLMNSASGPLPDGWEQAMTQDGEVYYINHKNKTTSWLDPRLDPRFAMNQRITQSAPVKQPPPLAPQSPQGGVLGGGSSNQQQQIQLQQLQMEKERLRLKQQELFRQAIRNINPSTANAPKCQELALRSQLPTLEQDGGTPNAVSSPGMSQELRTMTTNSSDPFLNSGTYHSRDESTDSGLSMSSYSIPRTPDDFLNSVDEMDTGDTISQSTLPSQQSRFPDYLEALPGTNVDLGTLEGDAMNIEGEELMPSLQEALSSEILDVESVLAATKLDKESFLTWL
UniProt Q02085: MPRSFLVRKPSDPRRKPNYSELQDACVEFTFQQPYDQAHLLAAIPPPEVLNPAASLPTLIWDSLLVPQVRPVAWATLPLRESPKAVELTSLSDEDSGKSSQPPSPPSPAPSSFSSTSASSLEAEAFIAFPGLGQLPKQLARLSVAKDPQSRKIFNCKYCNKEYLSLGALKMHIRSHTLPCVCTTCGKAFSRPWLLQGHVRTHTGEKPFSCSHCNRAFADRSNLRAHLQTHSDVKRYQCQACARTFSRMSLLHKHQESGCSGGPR

This is an account of results in paper PMC6787001.

The target in this assay is Yes-associated protein (YAP) (mouse (endogenous in RLSCs)) (UniProt P46938). Nature of the assay: co-IP; RLSCs lysed, immunoprecipitated with anti-YAP antibody, Western blot with the indicated antibodies; control immunoprecipitation with normal rabbit antiserum (IgG).

In the case of Snail (from UniProt Q02085 1-264), the binding result is given as “binds”.
